Literature values as cited in publication PMC12145446, “Development of an AI model for DILI-level prediction using liver organoid brightfield images” (Communications Biology, 2025).

Settings: FDA DILIrank category based on clinical data; cited from earlier work

Compound	DILIrank
CCN(CC)CC(=O)Nc1c(C)cccc1C [Lidocaine]	vNo-DILI-Concern
CN(C)CCOC(c1ccccc1)c1ccccc1 [Diphenhydramine]	vNo-DILI-Concern
